According to PMC9496679:
These are yes or no findings as the source states them, for the method shown. Binding seen in cells or lysates may run through a third protein. A yes stands for co-enrichment or nearness to the bait. Other partners may have been found. Where a sequence is shown, tags or fusion partners need not be part of it.

By UniProt entry, the sequences of proteins in these tests, tags left out. Where a name states a change or a piece, a line headed by the entry shows the natural chain unless it says otherwise. Residues count along the entry.
UniProt Q9UKV5: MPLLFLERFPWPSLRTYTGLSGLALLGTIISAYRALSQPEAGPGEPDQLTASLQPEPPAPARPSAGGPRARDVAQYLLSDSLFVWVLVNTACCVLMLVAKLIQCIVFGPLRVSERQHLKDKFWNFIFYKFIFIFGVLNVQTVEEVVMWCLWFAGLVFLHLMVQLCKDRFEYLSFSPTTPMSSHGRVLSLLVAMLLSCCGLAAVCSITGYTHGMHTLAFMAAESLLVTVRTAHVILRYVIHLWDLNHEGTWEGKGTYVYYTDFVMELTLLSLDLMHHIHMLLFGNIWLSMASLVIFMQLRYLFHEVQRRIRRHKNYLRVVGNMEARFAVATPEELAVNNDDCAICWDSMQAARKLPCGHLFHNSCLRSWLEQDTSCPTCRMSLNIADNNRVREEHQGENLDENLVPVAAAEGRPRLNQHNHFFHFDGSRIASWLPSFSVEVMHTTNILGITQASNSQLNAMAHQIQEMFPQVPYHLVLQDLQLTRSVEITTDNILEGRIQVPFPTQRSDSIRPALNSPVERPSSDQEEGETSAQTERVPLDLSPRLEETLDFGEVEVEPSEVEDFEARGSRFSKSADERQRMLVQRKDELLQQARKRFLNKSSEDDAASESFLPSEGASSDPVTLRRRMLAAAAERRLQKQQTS
UniProt P21796: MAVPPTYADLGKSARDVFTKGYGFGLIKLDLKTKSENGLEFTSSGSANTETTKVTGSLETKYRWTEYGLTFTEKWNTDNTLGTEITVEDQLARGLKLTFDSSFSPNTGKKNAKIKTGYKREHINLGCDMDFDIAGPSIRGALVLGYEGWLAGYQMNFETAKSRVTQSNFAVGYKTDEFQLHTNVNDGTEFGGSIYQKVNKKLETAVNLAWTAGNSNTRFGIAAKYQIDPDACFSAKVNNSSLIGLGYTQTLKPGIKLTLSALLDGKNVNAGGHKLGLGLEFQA
UniProt O95831: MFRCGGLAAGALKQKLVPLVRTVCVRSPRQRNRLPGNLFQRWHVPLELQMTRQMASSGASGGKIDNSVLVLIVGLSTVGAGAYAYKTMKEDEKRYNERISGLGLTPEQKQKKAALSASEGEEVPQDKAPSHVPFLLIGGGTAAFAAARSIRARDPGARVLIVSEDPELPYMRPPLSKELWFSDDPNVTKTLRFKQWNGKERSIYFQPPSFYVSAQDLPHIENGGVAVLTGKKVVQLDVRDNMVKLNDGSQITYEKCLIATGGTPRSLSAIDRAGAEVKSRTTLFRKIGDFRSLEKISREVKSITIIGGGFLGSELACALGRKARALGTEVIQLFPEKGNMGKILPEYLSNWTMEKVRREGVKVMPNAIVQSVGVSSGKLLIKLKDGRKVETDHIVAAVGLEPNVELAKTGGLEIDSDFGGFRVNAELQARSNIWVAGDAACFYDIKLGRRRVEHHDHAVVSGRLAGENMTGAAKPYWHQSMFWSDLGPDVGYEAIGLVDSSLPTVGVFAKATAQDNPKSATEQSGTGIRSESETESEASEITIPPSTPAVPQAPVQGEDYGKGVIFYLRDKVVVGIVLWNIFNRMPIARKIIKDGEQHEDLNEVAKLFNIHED
UniProt P11021, residues 19-654: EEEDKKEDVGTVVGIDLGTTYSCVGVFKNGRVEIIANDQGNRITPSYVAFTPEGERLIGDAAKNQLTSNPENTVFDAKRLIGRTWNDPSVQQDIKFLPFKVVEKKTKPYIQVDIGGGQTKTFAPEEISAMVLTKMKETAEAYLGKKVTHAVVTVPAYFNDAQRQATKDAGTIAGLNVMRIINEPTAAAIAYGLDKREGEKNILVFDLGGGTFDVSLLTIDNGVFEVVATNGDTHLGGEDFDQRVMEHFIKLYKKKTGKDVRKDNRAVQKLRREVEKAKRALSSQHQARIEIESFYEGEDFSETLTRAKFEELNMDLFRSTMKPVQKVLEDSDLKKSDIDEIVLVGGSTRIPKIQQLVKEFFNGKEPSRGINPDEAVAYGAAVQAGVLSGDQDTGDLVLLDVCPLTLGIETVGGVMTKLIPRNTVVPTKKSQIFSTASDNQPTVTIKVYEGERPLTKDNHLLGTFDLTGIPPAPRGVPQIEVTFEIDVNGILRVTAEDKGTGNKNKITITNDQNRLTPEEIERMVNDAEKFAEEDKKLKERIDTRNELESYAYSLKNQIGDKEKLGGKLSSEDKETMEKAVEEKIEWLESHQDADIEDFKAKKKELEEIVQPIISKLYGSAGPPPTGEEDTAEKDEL
UniProt O95292: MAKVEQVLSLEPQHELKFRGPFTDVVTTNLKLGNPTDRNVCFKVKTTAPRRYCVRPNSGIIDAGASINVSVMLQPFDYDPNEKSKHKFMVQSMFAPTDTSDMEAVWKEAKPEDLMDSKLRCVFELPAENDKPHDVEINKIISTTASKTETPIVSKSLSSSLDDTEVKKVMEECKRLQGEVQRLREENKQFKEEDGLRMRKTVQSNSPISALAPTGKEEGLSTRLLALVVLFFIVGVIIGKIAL
UniProt Q99720: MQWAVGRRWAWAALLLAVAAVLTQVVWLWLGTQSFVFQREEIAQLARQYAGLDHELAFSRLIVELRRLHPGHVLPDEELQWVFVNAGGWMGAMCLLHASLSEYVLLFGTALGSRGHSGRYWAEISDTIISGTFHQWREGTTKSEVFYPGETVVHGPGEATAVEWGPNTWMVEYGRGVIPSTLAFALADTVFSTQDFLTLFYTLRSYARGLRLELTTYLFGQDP
UniProt Q7Z434: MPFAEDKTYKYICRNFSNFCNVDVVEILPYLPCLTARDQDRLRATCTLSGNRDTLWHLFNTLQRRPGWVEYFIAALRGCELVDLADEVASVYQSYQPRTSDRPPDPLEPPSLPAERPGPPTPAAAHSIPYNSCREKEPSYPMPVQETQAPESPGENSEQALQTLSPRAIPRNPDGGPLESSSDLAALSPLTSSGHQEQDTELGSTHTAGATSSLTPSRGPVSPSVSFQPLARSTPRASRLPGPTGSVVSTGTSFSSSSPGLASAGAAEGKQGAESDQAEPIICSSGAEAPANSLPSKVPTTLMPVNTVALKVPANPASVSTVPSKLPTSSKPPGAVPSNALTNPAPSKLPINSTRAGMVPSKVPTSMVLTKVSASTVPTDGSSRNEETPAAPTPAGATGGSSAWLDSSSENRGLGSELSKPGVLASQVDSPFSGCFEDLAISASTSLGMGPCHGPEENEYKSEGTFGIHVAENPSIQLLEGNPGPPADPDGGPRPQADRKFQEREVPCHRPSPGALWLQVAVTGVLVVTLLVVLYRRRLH
UniProt Q8IXI2: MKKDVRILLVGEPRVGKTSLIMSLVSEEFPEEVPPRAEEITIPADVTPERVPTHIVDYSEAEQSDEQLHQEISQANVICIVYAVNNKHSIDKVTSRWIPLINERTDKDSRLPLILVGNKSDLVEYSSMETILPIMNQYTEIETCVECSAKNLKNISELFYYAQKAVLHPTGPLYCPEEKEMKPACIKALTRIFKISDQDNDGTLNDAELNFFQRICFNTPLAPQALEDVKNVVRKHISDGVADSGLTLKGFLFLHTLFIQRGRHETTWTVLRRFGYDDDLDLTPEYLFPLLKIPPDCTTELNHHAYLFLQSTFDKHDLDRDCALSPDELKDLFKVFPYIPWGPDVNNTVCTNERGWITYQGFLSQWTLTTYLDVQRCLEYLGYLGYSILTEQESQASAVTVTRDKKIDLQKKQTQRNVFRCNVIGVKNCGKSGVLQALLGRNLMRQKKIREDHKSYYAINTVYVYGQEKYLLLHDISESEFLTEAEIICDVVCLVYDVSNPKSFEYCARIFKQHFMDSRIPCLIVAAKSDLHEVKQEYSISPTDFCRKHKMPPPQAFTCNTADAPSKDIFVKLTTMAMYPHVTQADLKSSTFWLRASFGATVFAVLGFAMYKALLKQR
UniProt P07237, residues 18-508: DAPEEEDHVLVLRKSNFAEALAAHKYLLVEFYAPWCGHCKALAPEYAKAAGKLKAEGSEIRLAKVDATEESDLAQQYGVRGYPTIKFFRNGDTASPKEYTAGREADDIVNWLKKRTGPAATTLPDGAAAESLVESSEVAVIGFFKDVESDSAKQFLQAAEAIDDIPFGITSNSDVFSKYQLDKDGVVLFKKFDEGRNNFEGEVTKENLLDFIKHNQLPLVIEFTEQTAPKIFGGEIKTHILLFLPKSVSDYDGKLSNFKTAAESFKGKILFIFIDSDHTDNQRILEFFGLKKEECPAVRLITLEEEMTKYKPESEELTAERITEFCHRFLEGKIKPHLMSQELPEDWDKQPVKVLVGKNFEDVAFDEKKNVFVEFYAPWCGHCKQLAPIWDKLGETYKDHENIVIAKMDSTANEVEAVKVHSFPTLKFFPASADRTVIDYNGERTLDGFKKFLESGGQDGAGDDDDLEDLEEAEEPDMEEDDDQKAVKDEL

Experiments:
[1] = molecular target: T1, Strep II/FLAG (SF)-tagged human VLGR1_CTF (human) (UniProt Q8WXG9); experiment: affinity purification with mass spectrometry; tandem affinity purification (Strep-Tactin Superflow, then anti-FLAG M2 agarose; elution with desthiobiotin and FLAG peptide) of N- and C-terminally SF-tagged VLGR1_CTF expressed 48 h in HEK293T cells; LC-MS/MS; preys of mock and RAF1 TAPs excluded; N- and C-tagged baits pooled
T1 sequence: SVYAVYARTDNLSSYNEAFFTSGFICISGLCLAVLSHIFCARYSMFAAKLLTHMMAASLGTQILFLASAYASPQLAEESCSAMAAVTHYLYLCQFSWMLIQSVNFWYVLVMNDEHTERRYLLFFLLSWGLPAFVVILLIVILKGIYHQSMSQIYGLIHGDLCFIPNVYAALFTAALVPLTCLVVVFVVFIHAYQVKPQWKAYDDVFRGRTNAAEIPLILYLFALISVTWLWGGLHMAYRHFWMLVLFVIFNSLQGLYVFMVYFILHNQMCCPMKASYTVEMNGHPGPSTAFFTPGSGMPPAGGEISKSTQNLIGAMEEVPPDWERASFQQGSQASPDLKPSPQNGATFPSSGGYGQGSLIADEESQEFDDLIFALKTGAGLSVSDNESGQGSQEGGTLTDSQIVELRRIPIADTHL

[2] = molecular target: T1, Strep II/FLAG (SF)-tagged human VLGR1_CTF (human); experiment: affinity purification with mass spectrometry; tandem affinity purification (Strep-Tactin Superflow, then anti-FLAG M2 agarose) of N- and C-terminally SF-tagged VLGR1_CTF expressed 48 h in hTERT-RPE1 cells; LC-MS/MS; preys of mock and RAF1 TAPs excluded; N- and C-tagged baits pooled

Molecule | binding [1] | binding [2]
Autocrine motility factor receptor (from UniProt Q9UKV5 1-643) | binds | –
Voltage-dependent anion-channel 1 (from UniProt P21796 1-283) | binds | binds
Reticulon 4, neurite outgrowth inhibitor, Nogo-A (from UniProt Q9NQC3-1 1-1192) | binds | binds
Mitochondrial apoptosis-inducing factor 1 (from UniProt O95831) | binds | –
Heat shock protein 5 (from UniProt P11021 19-654) | binds | binds
vesicle-associated membrane protein-associated protein B (from UniProt O95292 1-243) | binds | –
Presenilin-2 (from UniProt P49810 1-448) | binds | –
sigma-1 receptor (S1R), endogenous (from UniProt Q99720 1-223) | binds | binds
Mito. antiviral-signaling protein (from UniProt Q7Z434 1-540) | binds | binds
Mitochondrial Rho GTPase 1 (from UniProt Q8IXI2 1-618) | binds | –
Protein disulfide-isomerase (from UniProt P07237 18-508) (enzyme) | binds | binds
ER resident protein 44 (protein, UniProt Q9BS26 30-406) EITSLDTENIDEILNNADVALVNFYADWCRFSQMLHPIFEEASDVIKEEFPNENQVVFARVDCDQHSDIAQRYRISKYPTLKLFRNGMMMKREYRGQRSVKALADYIRQQKSDPIQEIRDLAEITTLDRSKRNIIGYFEQKDSDNYRVFERVANILHDDCAFLSAFGDVSKPERYSGDNIIYKPPGHSAPDMVYLGAMTNFDVTYNWIQDKCVPLVREITFENGEELTEEGLPFLILFHMKEDTESLEIFQNEVARQLISEKGTINFLHADCDKFRHPLLHIQKTPADCPVIAIDSFRHMYVFGDFKDVLIPGKLKQFVFDLHSGKLHREFHHGPDPTDTAPGEQAQDVASSPPESSFQKLAPSEYRYTLLRDRDEL | binds | –
Glucose-6-phosphatase 3 (enzyme, UniProt Q9BUM1 1-346) MESTLGAGIVIAEALQNQLAWLENVWLWITFLGDPKILFLFYFPAAYYASRRVGIAVLWISLITEWLNLIFKWFLFGDRPFWWVHESGYYSQAPAQVHQFPSSCETGPGSPSGHCMITGAALWPIMTALSSQVATRARSRWVRVMPSLAYCTFLLAVGLSRIFILAHFPHQVLAGLITGAVLGWLMTPRVPMERELSFYGLTALALMLGTSLIYWTLFTLGLDLSWSISLAFKWCERPEWIHVDSRPFASLSRDSGAALGLGIALHSPCYAQVRRAQLGNGQKIACLVLAMGLLGPLDWLGHPPQISLFYIFNFLKYTLWPCLVLALVPWAVHMFSAQEAPPIHSS | binds | –
Lysocardiolipin acyltransferase 1 (enzyme, UniProt Q6UWP7 1-414) MHSRGREIVVLLNPWSINEAVSSYCTYFIKQDSKSFGIMVSWKGIYFILTLFWGSFFGSIFMLSPFLPLMFVNPSWYRWINNRLVATWLTLPVALLETMFGVKVIITGDAFVPGERSVIIMNHRTRMDWMFLWNCLMRYSYLRLEKICLKASLKGVPGFGWAMQAAAYIFIHRKWKDDKSHFEDMIDYFCDIHEPLQLLIFPEGTDLTENSKSRSNAFAEKNGLQKYEYVLHPRTTGFTFVVDRLREGKNLDAVHDITVAYPHNIPQSEKHLLQGDFPREIHFHVHRYPIDTLPTSKEDLQLWCHKRWEEKEERLRSFYQGEKNFYFTGQSVIPPCKSELRVLVVKLLSILYWTLFSPAMCLLIYLYSLVKWYFIITIVIFVLQERIFGGLEIIELACYRLLHKQPHLNSKKNE | binds | –
ERGIC-53 (protein, UniProt P49257 31-510) DGVGGDPAVALPHRRFEYKYSFKGPHLVQSDGTVPFWAHAGNAIPSSDQIRVAPSLKSQRGSVWTKTKAAFENWEVEVTFRVTGRGRIGADGLAIWYAENQGLEGPVFGSADLWNGVGIFFDSFDNDGKKNNPAIVIIGNNGQIHYDHQNDGASQALASCQRDFRNKPYPVRAKITYYQNTLTVMINNGFTPDKNDYEFCAKVENMIIPAQGHFGISAATGGLADDHDVLSFLTFQLTEPGKEPPTPDKEISEKEKEKYQEEFEHFQQELDKKKEEFQKGHPDLQGQPAEEIFESVGDRELRQVFEGQNRIHLEIKQLNRQLDMILDEQRRYVSSLTEEISKRGAGMPGQHGQITQQELDTVVKTQHEILRQVNEMKNSMSETVRLVSGMQHPGSAGGVYETTQHFIDIKEHLHIVKRDIDNLVQRNMPSNEKPKCPELPPFPSCLSTVHFIIFVVVQTVLFIGYIMYRSQQEAAAKKFF | binds | –
Phosphatidylinositol glycan anchor biosynthesis, class N (enzyme, UniProt O95427 1-931) MLLFFTLGLLIHFVFFASIFDIYFTSPLVHGMTPQFTPLPPPARRLVLFVADGLRADALYELDENGNSRAPFIRNIIMHEGSWGISHTRVPTESRPGHVALIAGFYEDVSAVAKGWKENPVEFDSLFNESKYTWSWGSPDILPMFAKGASGDHVYTYSYDAKREDFGAQDATKLDTWVFDNVKDFFHHARNNQSLFSKINEEKIVFFLHLLGIDTNGHAHRPSSRDYKHNIKKVDDGVKEIVSMFNHFYGNDGKTTFIFTSDHGMTDWGSHGAGHPSETLTPLVTWGAGIKYPQRVSAQQFDDAFLKEWRLENWKRLDVNQADIAPLMTSLIGVPFPLNSVGILPVDYLNNTDLFKAESMFTNAVQILEQFKVKMTQKKEVTLPFLFTPFKLLSDSKQFNILRKARSYIKHRKFDEVVSLCKELIHLALKGLSYYHTYDRFFLGVNVVIGFVGWISYASLLIIKSHSNLIKGVSKEVKKPSHLLPCSFVAIGILVAFFLLIQACPWTYYVYGLLPLPIWYAVLREFQVIQDLVVSVLTYPLSHFVGYLLAFTLGIEVLVLSFFYRYMLTAGLTAFAAWPFLTRLWTRAKMTSLSWTFFSLLLAVFPLMPVVGRKPDISLVMGAGLLVLLLSLCVVTSLMKRKDSFIKEELLVHLLQVLSTVLSMYVVYSTQSSLLRKQGLPLMNQIISWATLASSLVVPLLSSPVLFQRLFSILLSLMSTYLLLSTGYEALFPLVLSCLMFVWINIEQETLQQSGVCCKQKLTSIQFSYNTDITQFRQLYLDDIRRAFFLVFFLVTAFFGTGNIASINSFDLASVYCFLTVFSPFMMGALMMWKILIPFVLVMCAFEAVQLTTQLSSKSLFLIVLVISDIMALHFFFLVKDYGSWLDIGTSISHYVIVMSMTIFLVFLNGLAQLLTTKKLRLCGKPKSHFM | binds | –
PTDSS2 (phosphatidylserine synthase) (enzyme, UniProt Q9BVG9 1-487) MRRGERRDAGGPRPESPVPAGRASLEEPPDGPSAGQATGPGEGRRSTESEVYDDGTNTFFWRAHTLTVLFILTCTLGYVTLLEETPQDTAYNTKRGIVASILVFLCFGVTQAKDGPFSRPHPAYWRFWLCVSVVYELFLIFILFQTVQDGRQFLKYVDPKLGVPLPERDYGGNCLIYDPDNETDPFHNIWDKLDGFVPAHFLGWYLKTLMIRDWWMCMIISVMFEFLEYSLEHQLPNFSECWWDHWIMDVLVCNGLGIYCGMKTLEWLSLKTYKWQGLWNIPTYKGKMKRIAFQFTPYSWVRFEWKPASSLRRWLAVCGIILVFLLAELNTFYLKFVLWMPPEHYLVLLRLVFFVNVGGVAMREIYDFMDDPKPHKKLGPQAWLVAAITATELLIVVKYDPHTLTLSLPFYISQCWTLGSVLALTWTVWRFFLRDITLRYKETRWQKWQNKDDQGSTVGNGDQHPLGLDEDLLGPGVAEGEGAPTPN | binds | –
B-cell receptor-associated protein 31 (protein, UniProt P51572 1-246) MSLQWTAVATFLYAEVFVVLLLCIPFISPKRWQKIFKSRLVELLVSYGNTFFVVLIVILVLLVIDAVREIRKYDDVTEKVNLQNNPGAMEHFHMKLFRAQRNLYIAGFSLLLSFLLRRLVTLISQQATLLASNEAFKKQAESASEAAKKYMEENDQLKKGAAVDGGKLDVGNAEVKLEEENRSLKADLQKLKDELASTKQKLEKAENQVLAMRKQSEGLTKEYDRLLEEHAKLQAAVDGPMDKKEE | binds | –
Wolframin, ER, transmembrane (protein, UniProt O76024 1-890) MDSNTAPLGPSCPQPPPAPQPQARSRLNATASLEQERSERPRAPGPQAGPGPGVRDAAAPAEPQAQHTRSRERADGTGPTKGDMEIPFEEVLERAKAGDPKAQTEVGKHYLQLAGDTDEELNSCTAVDWLVLAAKQGRREAVKLLRRCLADRRGITSENEREVRQLSSETDLERAVRKAALVMYWKLNPKKKKQVAVAELLENVGQVNEHDGGAQPGPVPKSLQKQRRMLERLVSSESKNYIALDDFVEITKKYAKGVIPSSLFLQDDEDDDELAGKSPEDLPLRLKVVKYPLHAIMEIKEYLIDMASRAGMHWLSTIIPTHHINALIFFFIVSNLTIDFFAFFIPLVIFYLSFISMVICTLKVFQDSKAWENFRTLTDLLLRFEPNLDVEQAEVNFGWNHLEPYAHFLLSVFFVIFSFPIASKDCIPCSELAVITGFFTVTSYLSLSTHAEPYTRRALATEVTAGLLSLLPSMPLNWPYLKVLGQTFITVPVGHLVVLNVSVPCLLYVYLLYLFFRMAQLRNFKGTYCYLVPYLVCFMWCELSVVILLESTGLGLLRASIGYFLFLFALPILVAGLALVGVLQFARWFTSLELTKIAVTVAVCSVPLLLRWWTKASFSVVGMVKSLTRSSMVKLILVWLTAIVLFCWFYVYRSEGMKVYNSTLTWQQYGALCGPRAWKETNMARTQILCSHLEGHRVTWTGRFKYVRVTDIDNSAESAINMLPFFIGDWMRCLYGEAYPACSPGNTSTAEEELCRLKLLAKHPCHIKKFDRYKFEITVGMPFSSGADGSRSREEDDVTKDIVLRASSEFKSVLLSLRQGSLIEFSTILEGRLGSKWPVFELKAISCLNCMAQLSPTRRHVKIEHDWRSTVHGAVKFAFDFFFFPFLSAA | binds | –
CDGSH iron sulfur domain 2 (protein, UniProt Q8N5K1 1-135) MVLESVARIVKVQLPAYLKRLPVPESITGFARLTVSEWLRLLPFLGVLALLGYLAVRPFLPKKKQQKDSLINLKIQKENPKVVNEINIEDLCLTKAAYCRCWRSKTFPACDGSHNKHNELTGDNVGPLILKKKEV | binds | –
